Among the data in the supplement of paper PMC10849652 are log2 fold change values, retold here.

Amino acid sequences for entries named in this document (tags omitted). A change or cut given only in a name is not applied to a line headed by its entry.
UniProt Q9BXR0: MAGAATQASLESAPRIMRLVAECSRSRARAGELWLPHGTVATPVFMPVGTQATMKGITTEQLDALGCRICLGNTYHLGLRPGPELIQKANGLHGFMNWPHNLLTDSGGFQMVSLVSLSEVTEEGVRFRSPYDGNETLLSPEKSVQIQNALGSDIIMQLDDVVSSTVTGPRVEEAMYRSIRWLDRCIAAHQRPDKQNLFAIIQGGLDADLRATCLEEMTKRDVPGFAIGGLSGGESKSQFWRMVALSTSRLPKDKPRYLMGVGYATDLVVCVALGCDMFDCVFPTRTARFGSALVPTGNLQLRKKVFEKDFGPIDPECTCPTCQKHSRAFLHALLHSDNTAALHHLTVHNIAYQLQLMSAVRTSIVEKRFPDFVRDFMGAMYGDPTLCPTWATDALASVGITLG
UniProt P20742, whole entry, looked up: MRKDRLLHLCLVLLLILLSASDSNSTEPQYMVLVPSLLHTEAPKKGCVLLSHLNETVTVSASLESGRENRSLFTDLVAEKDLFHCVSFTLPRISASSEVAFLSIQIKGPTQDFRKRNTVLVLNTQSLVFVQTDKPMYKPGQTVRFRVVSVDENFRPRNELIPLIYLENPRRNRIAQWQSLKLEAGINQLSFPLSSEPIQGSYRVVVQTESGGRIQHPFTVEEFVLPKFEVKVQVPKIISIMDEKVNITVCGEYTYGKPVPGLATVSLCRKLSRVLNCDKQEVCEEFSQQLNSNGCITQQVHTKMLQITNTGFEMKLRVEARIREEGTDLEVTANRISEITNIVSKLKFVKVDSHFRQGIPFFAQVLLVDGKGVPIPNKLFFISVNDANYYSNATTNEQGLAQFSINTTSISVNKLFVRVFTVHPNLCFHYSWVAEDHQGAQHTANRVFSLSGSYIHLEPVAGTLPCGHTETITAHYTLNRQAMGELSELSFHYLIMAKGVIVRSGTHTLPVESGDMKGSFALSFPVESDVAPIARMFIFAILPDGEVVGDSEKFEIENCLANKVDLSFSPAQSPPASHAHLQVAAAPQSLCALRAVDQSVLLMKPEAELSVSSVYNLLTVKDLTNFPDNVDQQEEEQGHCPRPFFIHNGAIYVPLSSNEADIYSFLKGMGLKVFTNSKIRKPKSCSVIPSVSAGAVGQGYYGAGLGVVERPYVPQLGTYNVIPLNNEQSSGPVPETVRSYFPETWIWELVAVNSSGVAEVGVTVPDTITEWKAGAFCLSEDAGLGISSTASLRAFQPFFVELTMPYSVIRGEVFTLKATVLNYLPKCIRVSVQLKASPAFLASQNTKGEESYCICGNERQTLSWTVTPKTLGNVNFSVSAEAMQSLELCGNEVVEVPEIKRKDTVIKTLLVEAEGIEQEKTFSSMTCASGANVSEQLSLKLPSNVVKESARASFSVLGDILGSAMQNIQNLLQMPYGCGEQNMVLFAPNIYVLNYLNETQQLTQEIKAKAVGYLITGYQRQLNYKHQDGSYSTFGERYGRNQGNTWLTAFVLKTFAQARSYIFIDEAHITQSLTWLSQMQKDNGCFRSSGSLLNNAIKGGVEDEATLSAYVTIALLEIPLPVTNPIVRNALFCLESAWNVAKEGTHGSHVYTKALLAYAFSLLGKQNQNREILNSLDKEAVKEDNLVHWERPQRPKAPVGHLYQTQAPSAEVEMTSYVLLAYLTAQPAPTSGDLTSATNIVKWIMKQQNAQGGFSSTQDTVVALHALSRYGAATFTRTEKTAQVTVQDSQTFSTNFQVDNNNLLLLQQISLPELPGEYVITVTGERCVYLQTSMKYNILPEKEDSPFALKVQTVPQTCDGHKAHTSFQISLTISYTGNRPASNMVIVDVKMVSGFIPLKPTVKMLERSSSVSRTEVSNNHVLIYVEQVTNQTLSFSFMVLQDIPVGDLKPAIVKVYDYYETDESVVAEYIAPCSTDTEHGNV
UniProt Q9UL46, whole entry, looked up: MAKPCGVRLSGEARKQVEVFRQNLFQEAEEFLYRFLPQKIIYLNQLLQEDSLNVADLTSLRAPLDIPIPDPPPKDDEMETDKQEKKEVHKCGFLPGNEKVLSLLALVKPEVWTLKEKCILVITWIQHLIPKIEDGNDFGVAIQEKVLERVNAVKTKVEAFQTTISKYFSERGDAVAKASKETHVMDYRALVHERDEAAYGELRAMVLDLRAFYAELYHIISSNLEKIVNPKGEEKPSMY
UniProt Q9NRG1: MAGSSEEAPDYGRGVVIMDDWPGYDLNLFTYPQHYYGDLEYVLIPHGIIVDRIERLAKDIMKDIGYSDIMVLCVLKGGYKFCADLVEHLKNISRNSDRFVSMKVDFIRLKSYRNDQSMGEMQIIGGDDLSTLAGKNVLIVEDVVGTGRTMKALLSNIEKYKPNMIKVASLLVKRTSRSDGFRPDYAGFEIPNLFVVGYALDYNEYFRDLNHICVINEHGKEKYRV
UniProt P55036: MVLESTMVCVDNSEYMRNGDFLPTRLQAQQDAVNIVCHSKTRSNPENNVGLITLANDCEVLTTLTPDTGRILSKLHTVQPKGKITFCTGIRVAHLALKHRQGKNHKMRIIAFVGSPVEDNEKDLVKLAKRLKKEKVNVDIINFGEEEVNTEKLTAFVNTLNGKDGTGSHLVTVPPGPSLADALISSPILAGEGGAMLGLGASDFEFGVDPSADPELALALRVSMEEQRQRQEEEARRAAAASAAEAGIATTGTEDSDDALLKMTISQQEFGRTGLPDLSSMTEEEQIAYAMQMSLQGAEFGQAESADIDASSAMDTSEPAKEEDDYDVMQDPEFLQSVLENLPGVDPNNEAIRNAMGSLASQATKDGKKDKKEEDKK
UniProt Q9H0K6: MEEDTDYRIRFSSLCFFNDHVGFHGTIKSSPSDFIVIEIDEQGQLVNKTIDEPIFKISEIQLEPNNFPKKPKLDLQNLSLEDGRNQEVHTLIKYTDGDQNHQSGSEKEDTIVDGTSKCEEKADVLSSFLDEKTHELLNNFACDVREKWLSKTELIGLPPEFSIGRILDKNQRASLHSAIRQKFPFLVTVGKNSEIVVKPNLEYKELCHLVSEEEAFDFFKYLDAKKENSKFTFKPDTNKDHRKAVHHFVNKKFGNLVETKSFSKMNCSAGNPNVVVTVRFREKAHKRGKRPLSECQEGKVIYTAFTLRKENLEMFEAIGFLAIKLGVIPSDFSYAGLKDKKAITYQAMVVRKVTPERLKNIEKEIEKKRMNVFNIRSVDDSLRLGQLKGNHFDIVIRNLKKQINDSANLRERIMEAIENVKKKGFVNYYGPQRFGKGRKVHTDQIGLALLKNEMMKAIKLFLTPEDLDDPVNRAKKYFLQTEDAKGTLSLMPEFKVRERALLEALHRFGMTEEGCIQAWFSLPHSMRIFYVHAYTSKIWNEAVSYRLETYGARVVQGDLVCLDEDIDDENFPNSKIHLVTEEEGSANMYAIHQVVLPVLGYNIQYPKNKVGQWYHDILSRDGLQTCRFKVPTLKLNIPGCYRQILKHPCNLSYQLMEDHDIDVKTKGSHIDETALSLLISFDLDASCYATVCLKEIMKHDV
UniProt O00487, whole entry, looked up: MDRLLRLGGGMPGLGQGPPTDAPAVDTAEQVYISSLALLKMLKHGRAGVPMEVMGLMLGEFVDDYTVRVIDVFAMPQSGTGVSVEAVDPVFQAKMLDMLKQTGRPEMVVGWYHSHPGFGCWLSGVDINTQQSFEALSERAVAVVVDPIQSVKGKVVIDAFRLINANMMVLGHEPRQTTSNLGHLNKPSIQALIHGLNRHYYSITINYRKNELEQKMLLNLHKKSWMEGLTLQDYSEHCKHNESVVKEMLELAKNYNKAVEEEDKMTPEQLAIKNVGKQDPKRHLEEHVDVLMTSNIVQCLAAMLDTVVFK
UniProt Q8TB72: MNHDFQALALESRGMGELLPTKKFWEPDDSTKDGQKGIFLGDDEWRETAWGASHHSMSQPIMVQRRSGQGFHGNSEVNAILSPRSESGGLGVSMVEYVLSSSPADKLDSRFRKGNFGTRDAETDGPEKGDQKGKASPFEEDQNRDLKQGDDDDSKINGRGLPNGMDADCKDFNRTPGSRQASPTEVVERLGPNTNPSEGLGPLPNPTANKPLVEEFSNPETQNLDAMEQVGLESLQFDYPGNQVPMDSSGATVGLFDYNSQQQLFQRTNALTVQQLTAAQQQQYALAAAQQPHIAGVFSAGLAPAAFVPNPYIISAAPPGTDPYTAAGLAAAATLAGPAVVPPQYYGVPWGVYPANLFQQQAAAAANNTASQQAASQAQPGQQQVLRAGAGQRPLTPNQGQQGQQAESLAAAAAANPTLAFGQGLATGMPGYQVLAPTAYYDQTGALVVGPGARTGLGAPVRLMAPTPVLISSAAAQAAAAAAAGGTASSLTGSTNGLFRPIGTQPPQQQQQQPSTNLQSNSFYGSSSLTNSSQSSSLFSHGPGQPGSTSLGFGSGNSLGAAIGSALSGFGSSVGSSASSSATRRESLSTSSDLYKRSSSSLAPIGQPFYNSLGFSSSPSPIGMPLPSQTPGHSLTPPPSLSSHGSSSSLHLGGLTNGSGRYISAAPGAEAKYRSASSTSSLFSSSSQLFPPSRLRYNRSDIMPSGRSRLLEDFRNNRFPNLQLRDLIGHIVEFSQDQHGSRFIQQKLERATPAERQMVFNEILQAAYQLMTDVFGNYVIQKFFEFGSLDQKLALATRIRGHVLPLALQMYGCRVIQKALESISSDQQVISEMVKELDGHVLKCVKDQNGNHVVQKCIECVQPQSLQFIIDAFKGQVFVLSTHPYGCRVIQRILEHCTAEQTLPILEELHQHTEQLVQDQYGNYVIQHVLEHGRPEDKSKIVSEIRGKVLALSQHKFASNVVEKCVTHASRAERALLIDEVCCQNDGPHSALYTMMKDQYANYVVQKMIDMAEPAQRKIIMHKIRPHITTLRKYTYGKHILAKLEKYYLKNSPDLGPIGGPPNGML
UniProt Q9H974: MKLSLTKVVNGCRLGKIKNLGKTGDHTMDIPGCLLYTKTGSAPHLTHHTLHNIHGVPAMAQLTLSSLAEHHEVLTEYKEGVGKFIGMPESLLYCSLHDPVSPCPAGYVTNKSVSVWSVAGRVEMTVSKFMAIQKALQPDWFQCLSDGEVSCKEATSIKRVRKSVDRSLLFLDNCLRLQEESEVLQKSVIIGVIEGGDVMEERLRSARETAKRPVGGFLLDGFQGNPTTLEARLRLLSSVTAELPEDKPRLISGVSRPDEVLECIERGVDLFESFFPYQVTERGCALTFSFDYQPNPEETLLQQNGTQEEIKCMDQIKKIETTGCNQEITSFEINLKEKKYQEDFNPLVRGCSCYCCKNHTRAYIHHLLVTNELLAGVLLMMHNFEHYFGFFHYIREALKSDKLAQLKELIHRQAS
UniProt Q5JS54: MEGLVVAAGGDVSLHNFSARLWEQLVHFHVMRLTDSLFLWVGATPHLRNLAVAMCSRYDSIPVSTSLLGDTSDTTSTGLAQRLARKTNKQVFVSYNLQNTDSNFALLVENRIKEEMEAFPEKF
UniProt Q9BVG9: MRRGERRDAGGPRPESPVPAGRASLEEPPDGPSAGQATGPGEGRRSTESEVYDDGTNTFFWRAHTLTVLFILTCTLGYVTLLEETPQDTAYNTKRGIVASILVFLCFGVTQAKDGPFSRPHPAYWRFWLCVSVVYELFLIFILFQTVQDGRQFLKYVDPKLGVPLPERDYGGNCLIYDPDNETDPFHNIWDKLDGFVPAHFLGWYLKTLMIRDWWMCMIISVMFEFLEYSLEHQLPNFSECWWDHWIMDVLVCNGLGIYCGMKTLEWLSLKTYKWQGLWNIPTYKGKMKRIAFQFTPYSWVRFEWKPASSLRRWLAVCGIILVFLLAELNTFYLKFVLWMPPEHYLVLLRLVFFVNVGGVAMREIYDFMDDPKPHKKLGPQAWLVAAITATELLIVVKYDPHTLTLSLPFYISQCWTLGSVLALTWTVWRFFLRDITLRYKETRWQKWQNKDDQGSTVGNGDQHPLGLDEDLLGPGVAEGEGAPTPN
UniProt Q9BRP8: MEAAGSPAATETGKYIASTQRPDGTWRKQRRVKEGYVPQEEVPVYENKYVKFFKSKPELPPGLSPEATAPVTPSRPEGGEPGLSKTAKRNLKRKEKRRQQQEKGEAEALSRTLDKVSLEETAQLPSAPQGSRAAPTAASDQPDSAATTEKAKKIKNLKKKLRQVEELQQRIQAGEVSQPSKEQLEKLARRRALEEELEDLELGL
UniProt P25786: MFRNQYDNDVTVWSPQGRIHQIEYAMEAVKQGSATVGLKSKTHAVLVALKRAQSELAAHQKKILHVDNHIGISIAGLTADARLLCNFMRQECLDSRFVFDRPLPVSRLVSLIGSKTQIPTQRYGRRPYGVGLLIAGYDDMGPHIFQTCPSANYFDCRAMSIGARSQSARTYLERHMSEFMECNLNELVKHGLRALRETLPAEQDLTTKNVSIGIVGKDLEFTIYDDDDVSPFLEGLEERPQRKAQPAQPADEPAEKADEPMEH
UniProt P28066: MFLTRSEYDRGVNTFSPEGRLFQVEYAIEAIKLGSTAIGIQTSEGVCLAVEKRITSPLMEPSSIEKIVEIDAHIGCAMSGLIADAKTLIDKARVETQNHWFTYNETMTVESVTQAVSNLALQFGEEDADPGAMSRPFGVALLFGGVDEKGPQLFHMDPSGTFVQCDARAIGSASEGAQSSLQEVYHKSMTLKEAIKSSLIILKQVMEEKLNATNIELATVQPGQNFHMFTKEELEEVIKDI

This is one part of the list.

Compound in the first test: C1CCN(C1)C(=O)NC2=CC=CC(=C2)NC3=NC=C(C(=N3)NCCC4=CN=CN4)Br
The test is described as follows: log2 fold change, soluble protein after heating vs DMSO (PISA); higher = thermal stabilisation; K562 cells, 10 uM, 30 min; active = over 0.2 and 3.5 SD of the protein, either way, in both replicates (recomputed). The method, boiled down: (§1)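 Values are thermal stability changes relative to control samples and are taken from duplicates. They are stated as log2 fold changes. Before quantification by TMTpro 16plex LC-MS/MS with equalised channel sums, K562 cells at 2×10^6 cells/mL were treated with 10 μM compound for 30 min, heated in aliquots for 3 min across 48°C-58°C, pooled, extracted in PBS with 0.5% NP-40 at 4°C, and centrifuged at 21,000xg for 90 min to give the soluble supernatant.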
Consider PXMP2 (UniProt Q9NR77), for which the log2 fold change is inactive: -0.045.

On to PSPH (UniProt P78330), for which the log2 fold change is inactive: 0.003.

As to QTRT1 (UniProt Q9BXR0), the log2 fold change is inactive: 0.03.

On to PUS7 isoform 2 (UniProt Q96PZ0), for which the log2 fold change is inactive: -0.036.

Consider PZP (UniProt P20742), for which the log2 fold change is inactive: 0.188.

Turning to QPCTL (UniProt Q9NXS2), the log2 fold change was inactive: -0.071.

Consider PTMS (UniProt P20962), for which the log2 fold change is inactive: -0.042.

Take PWP2 (UniProt Q15269): the log2 fold change was inactive: 0.027.

For PSMA8 (UniProt Q8TAA3), the log2 fold change is inactive: 0.057.

With QDPR (UniProt P09417), the log2 fold change was inactive: 0.043.

As for PSME1 (UniProt Q06323), the log2 fold change was inactive: 0.

Turning to PSME2 (UniProt Q9UL46), the log2 fold change was inactive: 0.033.

As for PRTFDC1 (UniProt Q9NRG1), the log2 fold change was inactive: -0.015.

Take PSMB1 (UniProt P20618): the log2 fold change is inactive: 0.014.

As to PTPRA (UniProt P18433), the log2 fold change is inactive: -0.073.

Consider PSMD4 (UniProt P55036), for which the log2 fold change was inactive: 0.02.

PUS7L (UniProt Q9H0K6): the log2 fold change was inactive: -0.076.

On to PSMD14 (UniProt O00487), for which the log2 fold change was inactive: -0.017.

PUM2 (UniProt Q8TB72): the log2 fold change was inactive: 0.018.

In the case of PTPRC (UniProt P08575), the log2 fold change was inactive: -0.012.

On to QTRT2 isoform 4 (UniProt Q9H974), for which the log2 fold change is inactive: 0.016.

Consider PUS10 (UniProt Q3MIT2), for which the log2 fold change is inactive: -0.015.

With PSMG4 isoform 2 (UniProt Q5JS54), the log2 fold change was inactive: -0.05.

Regarding PYCARD (UniProt Q9ULZ3), the log2 fold change was inactive: -0.046.

Regarding PSMA7 (UniProt O14818), the log2 fold change was inactive: 0.019.

Take PTDSS2 (UniProt Q9BVG9): the log2 fold change is inactive: -0.017.

Consider QSOX2 (UniProt Q6ZRP7), for which the log2 fold change was inactive: -0.023.

In the case of PTK7 isoform 6 (UniProt Q13308), the log2 fold change was inactive: -0.092.

As for PYM1 (UniProt Q9BRP8), the log2 fold change is inactive: 0.076.

Regarding PSMA1 isoform 2 (UniProt P25786), the log2 fold change is inactive: 0.02.

Consider PSMA5 (UniProt P28066), for which the log2 fold change is inactive: 0.007.

As for PTCD3 (UniProt Q96EY7), the log2 fold change was inactive: -0.062.

For PXN (UniProt P49023), the log2 fold change was inactive: -0.049.

Turning to PSAP isoform 3 (UniProt P07602), the log2 fold change was inactive: -0.007.

Compound in the next test: C1CN(CCC1(CC2=CC=C(C=C2)Cl)N)C3=NC=NC4=C3C=CN4
Described as above. The method, boiled down:
as §1
Consider PXMP2 (UniProt Q9NR77), for which the log2 fold change is inactive: 0.026.

For PSPH (UniProt P78330), the log2 fold change was inactive: 0.046.

Consider QTRT1 (UniProt Q9BXR0), for which the log2 fold change was inactive: 0.038.

As for PUS7 isoform 2 (UniProt Q96PZ0), the log2 fold change is inactive: 0.02.

Consider PZP (UniProt P20742), for which the log2 fold change was inactive: 0.261.

In the case of QPCTL (UniProt Q9NXS2), the log2 fold change is inactive: -0.053.

With PTMS (UniProt P20962), the log2 fold change was inactive: 0.034.

Consider PWP2 (UniProt Q15269), for which the log2 fold change was inactive: -0.015.

On to PSMA8 (UniProt Q8TAA3), for which the log2 fold change was inactive: -0.013.

Regarding QDPR (UniProt P09417), the log2 fold change was inactive: 0.066.

As for PSME1 (UniProt Q06323), the log2 fold change was inactive: 0.034.

Consider PSME2 (UniProt Q9UL46), for which the log2 fold change is inactive: 0.033.

PRTFDC1 (UniProt Q9NRG1): the log2 fold change is inactive: 0.036.

For PSMB1 (UniProt P20618), the log2 fold change was inactive: 0.012.

Regarding PTPRA (UniProt P18433), the log2 fold change was inactive: 0.047.

Take PSMD4 (UniProt P55036): the log2 fold change is inactive: 0.

As for PUS7L (UniProt Q9H0K6), the log2 fold change is inactive: -0.018.

As to PSMD14 (UniProt O00487), the log2 fold change was inactive: -0.05.

As for PUM2 (UniProt Q8TB72), the log2 fold change was inactive: 0.045.

Turning to PTPRC (UniProt P08575), the log2 fold change was inactive: 0.048.

Take QTRT2 isoform 4 (UniProt Q9H974): the log2 fold change was inactive: 0.036.

As for PUS10 (UniProt Q3MIT2), the log2 fold change was inactive: 0.056.

For the target PSMG4 isoform 2 (UniProt Q5JS54), the log2 fold change was inactive: -0.009.

For the target PYCARD (UniProt Q9ULZ3), the log2 fold change was inactive: 0.022.

Regarding PSMA7 (UniProt O14818), the log2 fold change is inactive: 0.026.

With PTDSS2 (UniProt Q9BVG9), the log2 fold change was inactive: 0.005.

Turning to QSOX2 (UniProt Q6ZRP7), the log2 fold change is inactive: 0.043.

As for PTK7 isoform 6 (UniProt Q13308), the log2 fold change is inactive: 0.138.

PYM1 (UniProt Q9BRP8): the log2 fold change was inactive: -0.064.

As for PSMA1 isoform 2 (UniProt P25786), the log2 fold change was inactive: 0.007.

Consider PSMA5 (UniProt P28066), for which the log2 fold change was inactive: 0.019.

Consider PTCD3 (UniProt Q96EY7), for which the log2 fold change was inactive: -0.033.

Regarding PXN (UniProt P49023), the log2 fold change was inactive: 0.043.

Consider PSAP isoform 3 (UniProt P07602), for which the log2 fold change is inactive: -0.025.

Compound in another test: C1COCCN1CCN2C3=CC=CC=C3N=C2NC(=O)C4=CC(=CC=C4)[N+](=O)[O-] [IRAK-1-4 Inhibitor I]
Described as above. The essentials:
as §1
In the case of PXMP2 (UniProt Q9NR77), the log2 fold change is inactive: 0.045.

As to PSPH (UniProt P78330), the log2 fold change was inactive: 0.002.

For QTRT1 (UniProt Q9BXR0), the log2 fold change is inactive: 0.033.

On to PUS7 isoform 2 (UniProt Q96PZ0), for which the log2 fold change is inactive: -0.01.

With PZP (UniProt P20742), the log2 fold change is inactive: 0.076.

Turning to QPCTL (UniProt Q9NXS2), the log2 fold change is inactive: -0.038.

Turning to PTMS (UniProt P20962), the log2 fold change was inactive: 0.

In the case of PWP2 (UniProt Q15269), the log2 fold change was inactive: 0.009.

Turning to PSMA8 (UniProt Q8TAA3), the log2 fold change is inactive: -0.012.

Consider QDPR (UniProt P09417), for which the log2 fold change was inactive: 0.059.

Regarding PSME1 (UniProt Q06323), the log2 fold change is inactive: 0.028.

As to PSME2 (UniProt Q9UL46), the log2 fold change is inactive: 0.021.

As to PRTFDC1 (UniProt Q9NRG1), the log2 fold change was inactive: 0.042.

As to PSMB1 (UniProt P20618), the log2 fold change was inactive: 0.002.

For the target PTPRA (UniProt P18433), the log2 fold change is inactive: -0.022.

Turning to PSMD4 (UniProt P55036), the log2 fold change was inactive: -0.005.

On to PUS7L (UniProt Q9H0K6), for which the log2 fold change is inactive: -0.01.

As to PSMD14 (UniProt O00487), the log2 fold change was inactive: -0.063.

PUM2 (UniProt Q8TB72): the log2 fold change was inactive: 0.071.

For the target PTPRC (UniProt P08575), the log2 fold change is inactive: 0.03.

With QTRT2 isoform 4 (UniProt Q9H974), the log2 fold change was inactive: 0.07.

PUS10 (UniProt Q3MIT2): the log2 fold change is inactive: -0.009.

For PSMG4 isoform 2 (UniProt Q5JS54), the log2 fold change was inactive: 0.074.

As to PYCARD (UniProt Q9ULZ3), the log2 fold change is inactive: -0.087.

Turning to PSMA7 (UniProt O14818), the log2 fold change was inactive: 0.006.

As to PTDSS2 (UniProt Q9BVG9), the log2 fold change is inactive: 0.023.

QSOX2 (UniProt Q6ZRP7): the log2 fold change is inactive: 0.063.

Consider PTK7 isoform 6 (UniProt Q13308), for which the log2 fold change is inactive: -0.04.

For PYM1 (UniProt Q9BRP8), the log2 fold change is inactive: -0.058.

Regarding PSMA1 isoform 2 (UniProt P25786), the log2 fold change is inactive: 0.002.

As for PSMA5 (UniProt P28066), the log2 fold change is inactive: -0.009.

Take PTCD3 (UniProt Q96EY7): the log2 fold change is inactive: -0.065.

Regarding PXN (UniProt P49023), the log2 fold change is inactive: 0.004.

Turning to PSAP isoform 3 (UniProt P07602), the log2 fold change is inactive: 0.035.
